Data on 39 compounds can be found in the supplement of paper PMC10735217.

The test concerns HEK293A TEAD-LUC reporter. In words: TEAD-luciferase reporter activity (YAP activation), robust Z score vs plate; higher = stronger YAP/TEAD activation. Particulars: 24 h. (In general: A reporter such as luciferase makes a cellular process visible.)

Some of the results follow. This data set is noisy: repeats of one test often differ as much as different tests do.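 Human kidney-derived cells stably carry a construct in which eight TEAD-binding elements drive luciferase, measured by luminescence in a drug-repurposing library screen. A hit is any compound whose signal exceeds the plate mean by more than five robust Z scores.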

On to `CCCN1CCCC12Cc1ccccc1CN(C(=O)CC)C2` (stereo not given), for which the TEAD-luciferase reporter activity is, setting by setting: (compound concentration: 200 nM) inactive: 1.7; (compound concentration: 10 uM) active: 6.82.
`Cc1ccc(NC(=O)C(O)C(O)C(O)CO)cc1C` (stereo not given): the TEAD-luciferase reporter activity is, setting by setting: (compound concentration: 200 nM) inactive: 0.805; (compound concentration: 2 uM) inactive: -0.404; (compound concentration: 10 uM) inactive: -2.68.
The matching figures for `Cn1c(=O)[nH]c2ncn(CC(C)(C)C)c2c1=O`: inactive: -0.915, inactive: 0.159 and inactive: 0.856.
`CC(=O)Nc1ccc(OC2(C)OC(=O)c3ccccc3O2)cc1` (stereo not given): the TEAD-luciferase reporter activity by setting is: (compound concentration: 200 nM) inactive: 0.176; (compound concentration: 2 uM) inactive: -0.487; (compound concentration: 10 uM) inactive: -1.17.
The matching figures for `O=C(O)CCc1cc(I)c(Oc2ccc(O)c(I)c2)c(I)c1` [Triiodothyropropionic acid]: inactive: -0.784, inactive: -0.244 and inactive: -0.173.
In the same order, the values of `O=C(C[n+]1ccsc1)c1ccccc1` are inactive: 0.0317, inactive: 0.428 and inactive: 0.53.
`CSc1ccc2c(c1)N(CCC1CCCCN1C)c1ccccc1S2` (stereo not given): the TEAD-luciferase reporter activity reads like this: (compound concentration: 200 nM) inactive: -1.43; (compound concentration: 10 uM) inactive: -1.67.
Regarding `CSc1ccc2c(c1)N(CCC1CCCCN1C)c1ccccc1S2` (stereo not given) [thioridazine], where the note is “compound concentration: 2 uM”, the TEAD-luciferase reporter activity is inactive: 2.26.
Regarding `Nc1nccc(Oc2ccc(NC(=O)c3cn(COP(=O)(O)O)cc(-c4ccc(F)cc4)c3=O)cc2F)c1Cl` [Metatinib tromethamine], the TEAD-luciferase reporter activity was inactive: -1.28 (compound concentration: 200 nM), inactive: -1.2 (compound concentration: 2 uM) and inactive: 0.215 (compound concentration: 10 uM).
The matching figures for `CC(C)(Oc1ccc(Cl)cc1)C(=O)NC(=O)NCN1CCOCC1`: inactive: -0.069, inactive: -0.185 and inactive: 1.86.
Turning to `CC(C)CC[C@@H](O)[C@@H](C)[C@H]1CC[C@H]2[C@@H]3CC=C4C[C@@H](O)CC[C@]4(C)[C@H]3CC[C@]12C` [22(R)-Hydroxycholesterol], the TEAD-luciferase reporter activity runs as follows: (compound concentration: 200 nM) inactive: -0.104; (compound concentration: 2 uM) inactive: 0.392; (compound concentration: 10 uM) inactive: 2.19.
The matching figures for `Cc1nc(C(=O)N2CCCC[C@H]2CNC(=O)c2cccc3occc23)c(-c2ccc(F)cc2)s1`: inactive: -0.349, inactive: 2.13 and inactive: -0.735.
The matching figures for `CC(=O)Nc1ccc(C(=O)O)cc1`: inactive: -1.62, inactive: -0.298 and inactive: 1.21.
The matching figures for `Cc1cnc(C(=O)O)c[n+]1[O-]` [acipimox]: inactive: -1, inactive: -2.29 and inactive: -1.51.
Turning to `CCCC1O[C@@H]2C[C@H]3[C@@H]4CCC5=CC(=O)C=C[C@]5(C)[C@H]4[C@@H](O)C[C@]3(C)[C@]2(C(=O)CO)O1` (stereo not given in full) [Budesonide], the TEAD-luciferase reporter activity was inactive: 0.211 (compound concentration: 200 nM), inactive: -0.881 (compound concentration: 2 uM) and inactive: 0.513 (compound concentration: 10 uM).
The matching figures for `CC(=O)C(=Cc1ccccc1)C(C)=O`: inactive: -1.02, inactive: -0.917 and inactive: -1.13.
The matching figures for `CC1CC(=O)NN=C1c1ccc(N2CCN(C(=N)NCCCc3c[nH]cn3)CC2)c([N+](=O)[O-])c1` (stereo not given): inactive: 2.29, inactive: -1.11 and inactive: 0.0225.
In the same order, the values of `COc1cc(N2CCN(C(=O)Cn3nc(-c4ncc[nH]4)c4cccnc43)CC2)ccc1Cl` are inactive: 0.425, inactive: -0.665 and inactive: -0.273.
For the compound `CC(C(=O)OCCN1CCN(CCOC(=O)C(C)c2cccc3ccccc23)CC1)c1cccc2ccccc12` (stereo not given), the TEAD-luciferase reporter activity (compound concentration: 200 nM) was inactive: -0.43, the TEAD-luciferase reporter activity (compound concentration: 2 uM) is inactive: -1.26 and the TEAD-luciferase reporter activity (compound concentration: 10 uM) is inactive: -0.524.
Take `Cc1ccc(CCN2CCCCC23Cc2ccccc2CN(C(=O)CCC(=O)O)C3)cc1` (stereo not given): the TEAD-luciferase reporter activity runs as follows: (compound concentration: 200 nM) inactive: 1.86; (compound concentration: 10 uM) inactive: -0.27.
For the compound `CCN1CCCC1CNS(=O)(=O)c1cc(Cl)c(N)cc1OC` (stereo not given) [lorapride], the TEAD-luciferase reporter activity reads like this: (compound concentration: 200 nM) inactive: 1.68; (compound concentration: 2 uM) inactive: -0.678; (compound concentration: 10 uM) inactive: -1.42.
The matching figures for `C#Cc1cnc2nc(O)n(C(CC)CC)c2n1` [tirasemtiv]: inactive: -2.16, inactive: 1.97 and inactive: 2.3.
The matching figures for `O=C1NOCC1/N=C/c1ccc(/C=N/C2CONC2=O)cc1` (stereo not given): inactive: -1.08, inactive: -1.2 and inactive: -0.727.
In the same order, the values of `O=C(CCCN1CCC(n2c(=S)[nH]c3ccccc32)CC1)c1ccc(F)cc1` [timiperone] are inactive: -2.99, inactive: -0.513 and inactive: 4.77.
For the compound `Cc1c(Cl)cccc1Nc1ncccc1C(=O)OCC(O)CO` (stereo not given), the TEAD-luciferase reporter activity is, setting by setting: (compound concentration: 200 nM) inactive: 1.36; (compound concentration: 2 uM) inactive: -0.522; (compound concentration: 10 uM) inactive: 3.72.
The matching figures for `CCn1c2ccccc2c2cc(CN[C@H](C)CO)ccc21`: inactive: -1.18, inactive: -0.916 and active: 9.77.
In the case of `COC(F)(F)C(Cl)Cl` [methoxyflurane], the TEAD-luciferase reporter activity (compound concentration: 2 uM) is inactive: -0.92.
For the compound `COC(F)(F)C(Cl)Cl` [methoxyflurane, Medical Developments], the TEAD-luciferase reporter activity (compound concentration: 200 nM) is inactive: -1.07 and the TEAD-luciferase reporter activity (compound concentration: 10 uM) was inactive: 0.0206.
`[O]=[Zn]`: the TEAD-luciferase reporter activity runs as follows: (compound concentration: 200 nM) inactive: 0.953; (compound concentration: 10 uM) inactive: 0.162.
With `CC1=C(C(=O)N2CCCCC2)C(c2cc(Cl)cc(Cl)c2)n2nccc2N1` (stereo not given), the TEAD-luciferase reporter activity was inactive: -0.307 (compound concentration: 200 nM), inactive: -0.862 (compound concentration: 2 uM) and inactive: -1.18 (compound concentration: 10 uM).
The matching figures for `Cc1ccccc1-c1cc(N2CCN(C)CC2)ncc1N(C)C(=O)C(C)(C)c1cc(C(F)(F)F)cc(C(F)(F)F)c1` [Netupitant]: inactive: -1.22, inactive: -1.7 and inactive: -1.23.
Turning to `O=CCCCC=O`, the TEAD-luciferase reporter activity is inactive: 1.01 (compound concentration: 200 nM), inactive: -0.343 (compound concentration: 2 uM) and inactive: -0.0268 (compound concentration: 10 uM).
The matching figures for `COc1ccccc1N1CCC(CNC[C@H]2COc3ccc(Cl)cc3O2)CC1`: inactive: -2.63, inactive: -1.27 and inactive: -0.95.
In the same order, the values of `Oc1ccc(CCCCNC[C@H](O)c2ccc(O)c(O)c2)cc1` are inactive: -2.5, inactive: 0.512 and inactive: 3.51.
Take `CCCNC(C)C(=O)Nc1ccccc1C` (stereo not given) [Prilocaine]: for the setting “compound concentration: 2 uM”, the TEAD-luciferase reporter activity is inactive: -0.764.
As to `CCCNC(C)C(=O)Nc1ccccc1C` (stereo not given), the TEAD-luciferase reporter activity reads like this: (compound concentration: 200 nM) inactive: 0.708; (compound concentration: 10 uM) inactive: 0.0146.
For `CC(C)(C)OC(=O)NCCN1CC2CN(C[C@H](O)COc3ccc(C#N)cc3)CC(C1)O2` [AZD 7009 (inakalant)], the TEAD-luciferase reporter activity (compound concentration: 200 nM) was inactive: -1.34, the TEAD-luciferase reporter activity (compound concentration: 2 uM) is inactive: -1.71 and the TEAD-luciferase reporter activity (compound concentration: 10 uM) is inactive: 2.54.
The matching figures for `CCCCCNC(=S)Nc1ccc(NC(C)=N)cc1`: inactive: 0.0652, inactive: -0.0221 and inactive: -1.46.
The matching figures for `Cc1ncc(-c2csc(NC(=N)N)n2)[nH]1` [Zaltidine]: inactive: -0.189, inactive: -0.778 and inactive: -0.508.
